{"source": "PubChem BioAssay AID1053208 | Peter MacCallum Cancer Centre – 2014", "screen": "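Synthetic lethal interactions between gene loss and doxorubicin in osteosarcoma cells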 (primary screen)", "system": "mouse osteosarcoma cells, early-passage culture from an engineered mouse model of fibroblastic bone tumour", "reagent": "siRNA pool against mouse genes, 40 nM", "time to read-out": "about 120 h (48 h before drug, then 72 h with drug)", "treatment": "doxorubicin 100 nM for 72 h, roughly 30-40% inhibitory dose", "measurement": "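Viability read as ATP luminescence after 72 h of 100 nM doxorubicin or none, duplicate wells averaged, scaled to non-targeting siRNA, then expressed as robust z-scores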", "reading the numbers": "viability z-score with doxorubicin: higher = more viable cells under doxorubicin; viability z-score without drug: higher = more viable cells with knock-down alone", "call rule": "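a pool counts as active when its viability z-score with doxorubicin is -2 or below and its z-score without drug lies between -2 and 2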", "note": "In all, the deposit lists about 17,000 reagents; shown is a part drawn at random. Of all reagents, 788 (4.7%) got an active call. 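Calls rest on z-score classes alone; an extra cut-off of viability at most 70% of control was not applied to them.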 Entries without a mark were called inactive. Not all columns of the deposit are shown. Reagent sequences are not shown."}
{"target gene": "Pkhd1 (GeneID 241035)", "PubChem SID": "SID152317027", "combined z-score class": "no change with or without drug", "viability z-score with doxorubicin": -0.22, "viability z-score without drug": -0.84}
{"target gene": "Thrsp (GeneID 21835)", "PubChem SID": "SID152333111", "combined z-score class": "no change with or without drug", "viability z-score with doxorubicin": -1.35, "viability z-score without drug": 0}
{"target gene": "Fryl (GeneID 72313)", "PubChem SID": "SID152308121", "combined z-score class": "no change with or without drug", "viability z-score with doxorubicin": 0.9, "viability z-score without drug": -0.17}
{"target gene": "Fryl (GeneID 72313)", "PubChem SID": "SID152308797", "combined z-score class": "high cell count with doxorubicin only", "viability z-score with doxorubicin": 2.36, "viability z-score without drug": 1.69}
{"target gene": "Rab29 (GeneID 226422)", "PubChem SID": "SID152302470", "combined z-score class": "no change with or without drug", "viability z-score with doxorubicin": 1.12, "viability z-score without drug": -0.17}
{"target gene": "Or1j16 (GeneID 258947)", "PubChem SID": "SID152339535", "combined z-score class": "no change with or without drug", "viability z-score with doxorubicin": -1.8, "viability z-score without drug": -1.01}
{"target gene": "Or13j1 (GeneID 56015)", "PubChem SID": "SID152318134", "combined z-score class": "no change with or without drug", "viability z-score with doxorubicin": -1.35, "viability z-score without drug": 0.84}
{"target gene": "Arnt (GeneID 11863)", "PubChem SID": "SID152333233", "combined z-score class": "no change with or without drug", "viability z-score with doxorubicin": 0.22, "viability z-score without drug": 0.51}
{"target gene": "Agpat3 (GeneID 28169)", "PubChem SID": "SID152295485", "combined z-score class": "no change with or without drug", "viability z-score with doxorubicin": -1.12, "viability z-score without drug": -1.85}
{"target gene": "Cnih1 (GeneID 12793)", "PubChem SID": "SID152337700", "combined z-score class": "no change with or without drug", "viability z-score with doxorubicin": -1.35, "viability z-score without drug": -0.17}

Part of the list above, reduced to “combined z-score class”.
Fryl (GeneID 72313) [SID152308797] = high cell count with doxorubicin only
Rab29 (GeneID 226422) [SID152302470] = no change with or without drug

Next entries:
{"target gene": "Cdk20 (GeneID 105278)", "PubChem SID": "SID152306388", "combined z-score class": "no change with or without drug", "viability z-score with doxorubicin": -0.22, "viability z-score without drug": -1.69}
{"target gene": "Ada (GeneID 11486)", "PubChem SID": "SID152314997", "combined z-score class": "no change with or without drug", "viability z-score with doxorubicin": -1.57, "viability z-score without drug": -0.51}
{"target gene": "Fign (GeneID 60344)", "PubChem SID": "SID152260256", "combined z-score class": "no change with or without drug", "viability z-score with doxorubicin": 0.45, "viability z-score without drug": 1.85}
{"target gene": "Tomm34 (GeneID 67145)", "PubChem SID": "SID152291206", "combined z-score class": "no change with or without drug", "viability z-score with doxorubicin": -0.9, "viability z-score without drug": 0.17}
{"target gene": "Fbxo2 (GeneID 230904)", "PubChem SID": "SID152333706", "combined z-score class": "no change with or without drug", "viability z-score with doxorubicin": -1.12, "viability z-score without drug": 0}
{"target gene": "Fdxacb1 (GeneID 382137)", "PubChem SID": "SID152292638", "combined z-score class": "no change with or without drug", "viability z-score with doxorubicin": 0, "viability z-score without drug": -0.51}
{"target gene": "Mov10 (GeneID 17454)", "PubChem SID": "SID152295315", "combined z-score class": "low cell count with and without drug", "viability z-score with doxorubicin": -3.04, "viability z-score without drug": -2.19}
{"target gene": "Vmn1r219 (GeneID 171272)", "PubChem SID": "SID152266093", "combined z-score class": "high cell count with and without drug", "viability z-score with doxorubicin": 2.25, "viability z-score without drug": 2.36}
{"target gene": "Kera (GeneID 16545)", "PubChem SID": "SID152261881", "combined z-score class": "no change with or without drug", "viability z-score with doxorubicin": -0.79, "viability z-score without drug": -0.84}
{"target gene": "Or5ak25 (GeneID 258426)", "PubChem SID": "SID152271887", "combined z-score class": "no change with or without drug", "viability z-score with doxorubicin": -0.45, "viability z-score without drug": 1.01}
{"target gene": "Cts7 (GeneID 56092)", "PubChem SID": "SID152324988", "combined z-score class": "no change with or without drug", "viability z-score with doxorubicin": -0.11, "viability z-score without drug": 0.17}
{"target gene": "Mllt3 (GeneID 70122)", "PubChem SID": "SID152311184", "combined z-score class": "no change with or without drug", "viability z-score with doxorubicin": -1.57, "viability z-score without drug": 0.17}
{"target gene": "Stt3a (GeneID 16430)", "PubChem SID": "SID152339191", "combined z-score class": "no change with or without drug", "viability z-score with doxorubicin": -0.67, "viability z-score without drug": 0}
{"target gene": "Col7a1 (GeneID 12836)", "PubChem SID": "SID152310010", "combined z-score class": "no change with or without drug", "viability z-score with doxorubicin": 0.67, "viability z-score without drug": 1.52}
{"target gene": "Treml4 (GeneID 224840)", "PubChem SID": "SID152264852", "combined z-score class": "no change with or without drug", "viability z-score with doxorubicin": 0, "viability z-score without drug": 0.67}
{"target gene": "Pramel52-ps (GeneID 100554)", "PubChem SID": "SID152290179", "combined z-score class": "no change with or without drug", "viability z-score with doxorubicin": 0.45, "viability z-score without drug": 0.17}
{"target gene": "Stap1 (GeneID 56792)", "PubChem SID": "SID152286420", "combined z-score class": "no change with or without drug", "viability z-score with doxorubicin": -0.67, "viability z-score without drug": 0.17}
{"target gene": "Bach2 (GeneID 12014)", "PubChem SID": "SID152280408", "combined z-score class": "high cell count with and without drug", "viability z-score with doxorubicin": 2.25, "viability z-score without drug": 3.04}
